Experimental data reported in patent US20100222322A1, “Non-Nucleoside Reverse Transcriptase Inhibitors” (MERCK & CO., INC., priority 2005, published 2010).
Some of these results come from one statement about several compounds together.

system: T-lymphoid cells; assay: Cytotoxicity by microscopic examination of the cells in the spread assay; format: cell-based; details: microscopic examination of spread assay wells, at the compound's IC95 concentration

SMILES | cytotoxicity at the IC95 concentration
N#Cc1ccc2[nH]c(C(N)=O)c(S(=O)(=O)N3CCCC3)c2c1 [Example 68, 5-Cyano-3-(pyrrolidin-1-ylsulfonyl)-1H-indole-2-carboxamide] | no cytotoxicity
O=C(NCc1ccccc1OC(F)F)c1[nH]c2ccc(Br)cc2c1S(=O)(=O)N1CCCC1 [Example 53, 5-bromo-N-[2-(difluoromethoxy)benzyl]-3-(pyrrolidin-1-ylsulfonyl)-1H-indole-2-carboxamide] | no cytotoxicity
O=C(NCc1nc2cccnc2[nH]1)c1[nH]c2ccc(Br)cc2c1S(=O)(=O)N1CCCC1 [Example 63, 5-bromo-N-(3H-imidazo[4,5-b]pyridin-2-ylmethyl)-3-(pyrrolidin-1-ylsulfonyl)-1H-indole-2-carboxamide] | no cytotoxicity
O=C(NCc1ccccn1)c1[nH]c2ccc(Br)cc2c1S(=O)(=O)N1CCCC1 [Example 54, 5-bromo-N-(pyridin-2-ylmethyl)-3-(pyrrolidin-1-ylsulfonyl)-1H-indole-2-carboxamide] | no cytotoxicity
C=Cc1ccc2[nH]c(C(N)=O)c(S(=O)(=O)N3CCCC3)c2c1 [Example 66, 3-(pyrrolidin-1-ylsulfonyl)-5-vinyl-1H-indole-2-carboxamide] | no cytotoxicity
NS(=O)(=O)c1ccc(CNC(=O)c2[nH]c3ccc(Br)cc3c2S(=O)(=O)N2CCCC2)cc1 [Example 55, N-[4-(aminosulfonyl)benzyl]-5-bromo-3-(pyrrolidin-1-ylsulfonyl)-1H-indole-2-carboxamide] | no cytotoxicity
O=C(NCc1c(F)cccc1Cl)c1[nH]c2ccc(Br)cc2c1S(=O)(=O)N1CCCC1 [Example 48, 5-bromo-N-(2-chloro-6-fluorobenzyl)-3-(pyrrolidin-1-ylsulfonyl)-1H-indole-2-carboxamide] | no cytotoxicity
O=C(NCc1cncs1)c1[nH]c2ccc(Br)cc2c1S(=O)(=O)N1CCCC1 [Example 65, 5-bromo-3-(pyrrolidin-1-ylsulfonyl)-N-(1,3-thiazol-5-ylmethyl)-1H-indole-2-carboxamide] | no cytotoxicity
O=C(NCc1cccnc1)c1[nH]c2ccc(Br)cc2c1S(=O)(=O)N1CCCC1 [Example 50, 5-bromo-N-(pyridin-3-ylmethyl)-3-(pyrrolidin-1-ylsulfonyl)-1H-indole-2-carboxamide] | no cytotoxicity
O=C(NCc1cscn1)c1[nH]c2ccc(Br)cc2c1S(=O)(=O)N1CCCC1 [Example 57, 5-bromo-3-(pyrrolidin-1-ylsulfonyl)-N-(1,3-thiazol-4-ylmethyl)-1H-indole-2-carboxamide] | no cytotoxicity
COCCNC(=O)c1[nH]c2ccc(Br)cc2c1S(=O)(=O)N1CCCC1 [Example 56, 5-bromo-N-(2-methoxyethyl)-3-(pyrrolidin-1-ylsulfonyl)-1H-indole-2-carboxamide] | no cytotoxicity
O=C(NCCCn1ccnc1)c1[nH]c2ccc(Br)cc2c1S(=O)(=O)N1CCCC1 [Example 52, 5-bromo-N-[3-(1H-imidazol-1-yl)propyl]-3-(pyrrolidin-1-ylsulfonyl)-1H-indole-2-carboxamide] | no cytotoxicity
NC(=O)c1[nH]c2ccc(-c3cccc4ncccc34)cc2c1S(=O)(=O)N1CCCC1 [Example 67, 3-(pyrrolidin-1-ylsulfonyl)-5-quinolin-5-yl-1H-indole-2-carboxamide] | no cytotoxicity
CN1CCC(CNC(=O)c2[nH]c3ccc(Br)cc3c2S(=O)(=O)N2CCCC2)C1 (stereo not shown) [Example 60, 5-bromo-N-[(1-methylpyrrolidin-3-yl)methyl]-3-(pyrrolidin-1-ylsulfonyl)-1H-indole-2-carboxamide] | no cytotoxicity
O=C(NCCc1cnc[nH]1)c1[nH]c2ccc(Br)cc2c1S(=O)(=O)N1CCCC1 [Example 49, 5-bromo-N-[2-(1H-imidazol-5-yl)ethyl]-3-(pyrrolidin-1-ylsulfonyl)-1H-indole-2-carboxamide] | no cytotoxicity
O=C(NCc1ccn[nH]1)c1[nH]c2ccc(Br)cc2c1S(=O)(=O)N1CCCC1 [Example 59, 5-bromo-N-(1H-pyrazol-5-ylmethyl)-3-(pyrrolidin-1-ylsulfonyl)-1H-indole-2-carboxamide] | no cytotoxicity
O=C(NCc1ccon1)c1[nH]c2ccc(Br)cc2c1S(=O)(=O)N1CCCC1 [Example 58, 5-bromo-N-(isoxazol-3-ylmethyl)-3-(pyrrolidin-1-ylsulfonyl)-1H-indole-2-carboxamide] | no cytotoxicity
O=C(NCc1ccccc1O)c1[nH]c2ccc(Br)cc2c1S(=O)(=O)N1CCCC1 [Example 51, 5-bromo-N-(2-hydroxybenzyl)-3-(pyrrolidin-1-ylsulfonyl)-1H-indole-2-carboxamide] | no cytotoxicity
O=C(NCc1ccncc1)c1[nH]c2ccc(Br)cc2c1S(=O)(=O)N1CCCC1 [Example 64, 5-bromo-N-(pyridin-4-ylmethyl)-3-(pyrrolidin-1-ylsulfonyl)-1H-indole-2-carboxamide] | no cytotoxicity
